The source of these data is article PMC8885739.

Sequences of proteins named here, by UniProt entry; tags and fusion partners are left off. A change or cut given only in a name is not applied to a line headed by its entry.
UniProt Q8C5Y2: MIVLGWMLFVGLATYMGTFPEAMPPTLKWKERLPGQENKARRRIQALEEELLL

Experiment [1] deals with Polluks with a COOH-terminal FLAG tag, from Polluks^FLAG/+ knock-in mice (mouse (endogenous in testis)). The experiment in a line: affinity purification with mass spectrometry; lysates of testis of Kastor^FLAG/+ or Polluks^FLAG/+ mice (50 mM Tris-HCl pH 7.5, 150 mM NaCl, 1% Triton X-100); anti-FLAG M2 affinity gel, 90 min at 4 °C; eluted with FLAG peptide; SDS-PAGE, silver staining, in-gel digestion, LC-MS/MS.

Experiment [2] concerns the target Kastor with a COOH-terminal FLAG tag, from Kastor^FLAG/+ knock-in mice (mouse (endogenous in testis)) (UniProt Q8C5Y2). Described as above.

Results are given in words; binding and its absence hold for the method and conditions named. Binding seen in cells or lysates may run through a third protein. Here binding means that the protein was enriched with, or labelled near, the bait; the list need not be complete.

B1: TBC1 domain family member 21 (TBC1D21), endogenous in mouse testis (protein, UniProt Q9D9D3 1-336)
chain: MTTLSPENSLSARRSATFILEKRNPPIDKAEWDSFFDENGHLAKSRDFICINILERGLHPFVRTEAWKFLTGYYSWQSSRDERLMVDSNRRRNYNSLCQMYEKIQPLLENLHGNFTETRNNIAYDIQRLYDKDPLGNVLIDKKKLEKTLLLSYVCNTKAEYQRGFHEMVMLFQLMVEHDHETFWLFQFFLQKTEHSCVINIGVGKNLDMLNSLITLLDPEFAEHLKGKGSGAVQSLFPWFCLCFQRAFKTFDDVWRLWEVLLTGKPCRNFQVLVAYSMLQMVREQALLECMSGDAILMACNNLIDLDADELISAACVVYSELMQKEVPQPLKEFLL
Regarding B1, the binding entry in experiment [1] and in experiment [2] was “binds” each time.

B2: glycerol kinase 2 (GK2), endogenous in mouse testis (protein, UniProt Q9WU65 1-554)
chain: MAASKQTSAGPLVGAVVQGTNSTRFLVFNSKTAELVCSHQVELTQEYPKEGWVEQDPKEILKSVYECIAKACEKLAEVNIDISNIKAIGVSNQRETTVVWDKFTGDPLYNAVVWLDLRTQSTVETLTKKIPGNSNFVKSKTGLPLSTYFSAVKLRWMLDNLRPIQKAVEEGRAMFGTIDSWLIWCMTGGVNGGIHCTDVTNACRTMLFNIHSLEWDKDLCDFFEIPMSILPNVCSSSEIYGLMTSGALEGVPISGCLGDQSAALVGQMCFHEGQAKNTYGTGCFLLCNTGQKCVFSEHGLLTTLAYKLGKNKPVFYALEGSVAIAGAVIRWLRDNFEIITTSGEVENLAREVGTSYGCYFVPAFSGLYAPYWEPSARGIICGLTQFTNKCHIAFAALEAVCFQTREILDAMNRDCGIPLSHLQVDGGMTNNRILMQLQADILHIPVVKSVMPETTALGAAMAAGAAEGVNVWSLEPEDLSTILMERYEPQIQATESEIRFSTWKRAVMKSMGWVTAKDPENGDNPVFSCLPLGFFIVSSMTLLIGARCVSTAEE
Regarding B2, the binding entry in experiment [1] and in experiment [2] was “binds” in each case.

B3: armadillo repeat-containing 12 (ARMC12), endogenous in mouse testis (protein, UniProt Q80X86 1-340)
chain: MGKTIPRFLEQLDLIKSFVGLATGAGALYLLYKAVRTGLKCHPPLCSNSPICIARLAIERERHGRDSGEIRRLLNSLDCKQDEYTRSMILHNITRCVYLLEAEASSCTMDDIDLVADMLDEKDNSVKIQALNALKAFSGIRKFRLKIQEHCIKVLELISTIWDLELHVAGLRLLNNLPLPDYVHPQLRRVMPALMEIIQSDCILAQVQAVRLLSYLAQKNDLLYDILNCQVRPNFLNLFQSSQPGSLLFEVLVFAEHLSEGRNATHYRAVKWHYNEQSLHEALFGDESRLADRLLSLVIHPEEEVQIQACKVIVSLQCPQDLGSRPSSCRPSHSCFKTGK
Consider B3, for which the binding entry in experiment [1] and in experiment [2] was “binds” throughout.
